# Literature values as cited in US8323917B2, “Method of screening for compounds that inhibit the enzymatic activity of GWT1 gene product” (priority 2002, dated 2012).
# Some entries share one result that the patent states for a list of compounds.
# Test system: GWT1 gene products
# Settings: reporter system reflecting the activity of the GWT1 gene products; cited from earlier work
row,Compound,inhibitory activity IC50 (Table 1 in WO 02/04626)
1,"CCCCc1ccc(Cc2nccc3ccccc23)cc1 [Example B2, 1-(4-butylbenzyl)isoquinoline]",≤ 1 µg/mL
2,"CCCCc1ccc(Cc2nccc3ccccc23)c(O)c1 [Example B85, 5-butyl-2-(1-isoquinolylmethyl)phenol]",≤ 1 µg/mL
